Results are given in words; binding and its absence hold for the method and conditions named. Binding seen in cells or lysates may run through a third protein. These calls come from enrichment with a bait or labelling near it, and not all partners need be listed. Where a sequence is shown, tags or fusion partners need not be part of it.
T1: MBP-PerA fusion (enteropathogenic E. coli (EPEC)) (UniProt P43459)
T1 sequence: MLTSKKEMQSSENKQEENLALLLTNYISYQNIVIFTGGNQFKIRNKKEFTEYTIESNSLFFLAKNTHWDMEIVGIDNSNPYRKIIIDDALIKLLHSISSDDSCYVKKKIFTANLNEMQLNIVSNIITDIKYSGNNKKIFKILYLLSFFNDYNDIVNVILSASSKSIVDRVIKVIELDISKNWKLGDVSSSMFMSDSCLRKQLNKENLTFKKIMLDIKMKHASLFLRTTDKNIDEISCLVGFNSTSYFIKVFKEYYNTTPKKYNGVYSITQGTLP

Protein sequences, listed by entry. Tags and fused reporters are not part of them.
UniProt P00579: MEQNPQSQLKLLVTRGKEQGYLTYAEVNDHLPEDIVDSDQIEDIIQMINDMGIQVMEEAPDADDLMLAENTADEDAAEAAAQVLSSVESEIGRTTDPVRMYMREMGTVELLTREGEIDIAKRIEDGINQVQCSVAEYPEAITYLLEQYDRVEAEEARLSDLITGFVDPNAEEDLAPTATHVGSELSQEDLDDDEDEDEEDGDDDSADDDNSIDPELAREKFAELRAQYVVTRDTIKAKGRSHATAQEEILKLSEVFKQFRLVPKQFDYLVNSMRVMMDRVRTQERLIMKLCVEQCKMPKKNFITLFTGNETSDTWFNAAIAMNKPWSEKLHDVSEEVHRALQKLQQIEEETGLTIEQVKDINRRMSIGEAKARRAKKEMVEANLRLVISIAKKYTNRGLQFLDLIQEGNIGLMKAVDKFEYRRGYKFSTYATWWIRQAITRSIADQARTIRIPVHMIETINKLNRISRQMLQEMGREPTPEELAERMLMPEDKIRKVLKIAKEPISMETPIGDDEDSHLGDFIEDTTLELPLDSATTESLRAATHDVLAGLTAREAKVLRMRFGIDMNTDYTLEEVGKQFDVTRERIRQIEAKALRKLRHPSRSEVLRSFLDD
UniProt P0A9E5: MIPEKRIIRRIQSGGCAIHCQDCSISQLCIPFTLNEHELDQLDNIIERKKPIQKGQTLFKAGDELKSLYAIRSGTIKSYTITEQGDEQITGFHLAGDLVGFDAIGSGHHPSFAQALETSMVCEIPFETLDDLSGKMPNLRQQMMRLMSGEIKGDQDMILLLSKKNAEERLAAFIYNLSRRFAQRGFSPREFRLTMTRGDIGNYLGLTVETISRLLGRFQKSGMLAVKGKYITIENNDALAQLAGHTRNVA
UniProt P0A7Z4: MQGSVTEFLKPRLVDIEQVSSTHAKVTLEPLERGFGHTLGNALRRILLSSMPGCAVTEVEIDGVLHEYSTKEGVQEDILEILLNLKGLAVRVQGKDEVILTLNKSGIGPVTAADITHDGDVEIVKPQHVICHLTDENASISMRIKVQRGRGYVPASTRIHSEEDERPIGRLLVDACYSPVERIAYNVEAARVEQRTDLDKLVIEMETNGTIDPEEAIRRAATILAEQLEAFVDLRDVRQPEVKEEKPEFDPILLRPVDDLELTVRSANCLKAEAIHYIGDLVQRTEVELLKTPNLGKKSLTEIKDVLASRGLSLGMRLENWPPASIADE

B1: DNA-binding transcriptional regulator KdgR (protein, UniProt P76268 1-263)
chain: MANADLDKQPDSVSSVLKVFGILQALGEEREIGITELSQRVMMSKSTVYRFLQTMKTLGYVAQEGESEKYSLTLKLFELGARALQNVDLIRSADIQMRELSRLTKETIHLGALDEDSIVYIHKIDSMYNLRMYSRIGRRNPLYSTAIGKVLLAWRDRDEVKQILEGVEYKRSTERTITSTEALLPVLDQVREQGYGEDNEEQEEGLRCIAVPVFDRFGVVIAGLSISFPTLRFSEERLQEYVAMLHTAARKISAQMGYHDYPF
B2: ATP-dependent Clp protease ATP-binding subunit ClpA (protein, UniProt P0ABH9 1-758)
chain: MLNQELELSLNMAFARAREHRHEFMTVEHLLLALLSNPSAREALEACSVDLVALRQELEAFIEQTTPVLPASEEERDTQPTLSFQRVLQRAVFHVQSSGRNEVTGANVLVAIFSEQESQAAYLLRKHEVSRLDVVNFISHGTRKDEPTQSSDPGSQPNSEEQAGGEERMENFTTNLNQLARVGGIDPLIGREKELERAIQVLCRRRKNNPLLVGESGVGKTAIAEGLAWRIVQGDVPEVMADCTIYSLDIGSLLAGTKYRGDFEKRFKALLKQLEQDTNSILFIDEIHTIIGAGAASGGQVDAANLIKPLLSSGKIRVIGSTTYQEFSNIFEKDRALARRFQKIDITEPSIEETVQIINGLKPKYEAHHDVRYTAKAVRAAVELAVKYINDRHLPDKAIDVIDEAGARARLMPVSKRKKTVNVADIESVVARIARIPEKSVSQSDRDTLKNLGDRLKMLVFGQDKAIEALTEAIKMARAGLGHEHKPVGSFLFAGPTGVGKTEVTVQLSKALGIELLRFDMSEYMERHTVSRLIGAPPGYVGFDQGGLLTDAVIKHPHAVLLLDEIEKAHPDVFNILLQVMDNGTLTDNNGRKADFRNVVLVMTTNAGVRETERKSIGLIHQDNSTDAMEEIKKIFTPEFRNRLDNIIWFDHLSTDVIHQVVDKFIVELQVQLDQKGVSLEVSQEARNWLAEKGYDRAMGARPMARVIQDNLKKPLANELLFGSLVDGGQVTVALDKEKNELTYGFQSAQKHKAEAAH
B3: DNA-binding protein H-NS (protein, UniProt P0ACF8 1-137)
chain: MSEALKILNNIRTLRAQARECTLETLEEMLEKLEVVVNERREEESAAAAEVEERTRKLQQYREMLIADGIDPNELLNSLAAVKSGTKAKRAQRPAKYSYVDENGETKTWTGQGRTPAVIKKAMDEQGKSLDDFLIKQ

What follows are molecules tested against T1, MBP-PerA fusion (enteropathogenic E. coli (EPEC)) (assay: affinity purification with mass spectrometry; purified MBP-PerA or MBP (40 µg) immobilised on 70 µl amylose magnetic beads (2 h, 4 °C), mixed with 400 µl ΔperA and WT E2348/69 soluble cell extracts for 4 h at 4 °C; ten washes; SDS-PAGE, differential bands cut for LC-MS/MS; only the target purified).
For “DNA-directed RNA polymerase sigma factor RpoD (from UniProt P00579 1-613)”, the binding was “binds”. With “Transcriptional regulator FNR (from UniProt P0A9E5 1-250)” the binding was “binds”. For “DNA-directed RNA polymerase subunit alpha (endogenous) (from UniProt P0A7Z4 1-329)”, the binding was “binds”. B1 was tested, and the binding was “binds”. B2 was tested, and the binding was “binds”. For B3, the binding was “binds”.

— publication PMC8058060, “The transcriptional activator of the bfp operon in EPEC (PerA) interacts with the RNA polymerase alpha subunit” (Scientific Reports, 2021)
